We go through 38 compounds from PubChem BioAssay AID2685 (National Center for Advancing Translational Sciences (NCATS), 2010).

This assay can be described thus: qHTS Assay for Lipid Storage Modulators in Drosophila S3 Cells.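 For cell number change: cells counted by Cell Tracker Red CMTPX staining in the red channel.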 To be noted: BODIPY lipid droplet fluorescence, 18-24 h; for cell number change: measured here: cell count max response, cells fed with added oleic acid. Put shortly:
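Drosophila S3 cells loaded with oleic acid (400 uM, as added) and compounds at several concentrations; lipid droplets imaged by 488-nm laser-scanning cytometry, 500–530 nm intensity and object ratio to cell channel. Percent activity normalized to 20 uM Triacsin C.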
On the technique in general: Quantitative high-throughput screening tests each substance at several concentrations.

[1] abbreviates: measured here: lipid fluorescence (Fed channel) AC50, cells fed with added oleic acid.
Where [2] appears, read: measured here: cell number channel AC50, cells fed with added oleic acid.

The list shows a part of the results. Further columns of the screen follow, without active or inactive calls. Most of these compounds were active or inconclusive in the main read-out, so they are no random draw. Potencies come from curve fits of mixed quality, noted in brackets.

What is called AC50 is the concentration giving half of the maximal activity seen. As to `Cc1ccc(/C(N)=N/OC(=O)c2ccc3c(c2)OCO3)cc1`, the cell number change was -15%. Moreover, the AC50 under setting [1] is 8.2 µM [rising, partial curve, poor fit].

With `CCOC(=O)c1ccc(NC(=O)NC2CC3CCC(C2)N3Cc2nnnn2C(C)(C)C)cc1` (stereo not given), the cell number change was 3.12%.

For `COc1ccccc1C(=O)CN1C(=O)NC2(CCc3ccccc32)C1=O` (stereo not given), the cell number change is -0.64%. Under setting [1], the AC50 was 29.1 µM [rising, partial curve, poor fit].

As for `O=C(Nc1scc(-c2ccccc2)c1C(=O)O)c1ccccc1Cl`, the cell number change amounted to 36.1%. For the same compound, the AC50 under setting [2] was 6.51 µM [rising, full curve, poor fit]. Further, under setting [1], the AC50 is 29.1 µM [falling, single point].

In the case of `CC(=O)N1c2ccccc2Sc2ccccc21`, the cell number change worked out at 16.6%. Under setting [1], the AC50 is 29.1 µM [rising, single point].

On to `COc1cc(CCCN2CCNC[C@@H]2Cc2ccccc2)cc(OC)c1OC`, for which the cell number change was -45.6%. Further, under setting [2], the AC50 was 29.1 µM [falling, single point]. In addition, the AC50 under setting [1] is 0.651 µM [rising, full curve, poor fit].

Consider `COCCNC(=O)C(c1ccc(C)cc1)N(C(=O)CCC(=O)Nc1ccccn1)c1ccc(C)cc1` (stereo not given), for which the cell number change was determined as 6.96%.

For the compound `CCC1Sc2ccc(S(=O)(=O)Nc3ccc(OC)c(OC)c3)cc2NC1=O` (stereo not given), the cell number change was 18.7%. For the same compound, under setting [1], the AC50 is 6.51 µM [falling, single point].

Take `Cc1cccc(OCCC(=O)NCC(=O)Nc2cccc(C)c2C)c1`: the cell number change amounted to 7.46%. The half-maximal activity concentration (AC50) under setting [2] was 6.51 µM [rising, single point]. Further, the concentration at half-maximal activity (AC50) under setting [1] was 6.51 µM [rising, partial curve, poor fit].

As to `Cc1cccc(N(C(=O)c2snc(C(N)=O)c2N)C(C(=O)NC2CCCC2)c2ccncc2)c1` (stereo not given), the cell number change was 3.85%.

On to `CC(C)NC(=O)[C@H](CSCc1ccccc1)N1Cc2ccccc2C1=O`, for which the cell number change amounted to 12.1%. Further, the half-maximal activity concentration (AC50) under setting [1] was 9.2 µM [rising, partial curve].

Take `c1csc(-c2nn[nH]n2)c1`: the cell number change was -15.3%. In addition, under setting [1], the AC50 was 29.1 µM [falling, single point].

As for `COc1ccc([N+](=O)[O-])cc1NC(=S)NC(NC(=O)C(c1ccccc1)c1ccccc1)C(Cl)(Cl)Cl` (stereo not given), the cell number change was -34.6%. The AC50 under setting [2] was 18.4 µM [falling, single point]. The AC50 under setting [1] is 29.1 µM [falling, single point].

`Cc1cc(OCC(=O)Nc2ccncc2)cc(C)c1Cl`: the cell number change was -56.4%. For the same compound, the half-maximal activity concentration (AC50) under setting [2] is 9.2 µM [falling, partial curve].

Turning to `CC(=O)COC(=O)CNC(=O)c1ccc(Br)cc1`, the cell number change is -20.1%. In addition, the half-maximal activity concentration (AC50) under setting [2] is 2.59 µM [falling, full curve, poor fit]. Moreover, under setting [1], the AC50 is 16.4 µM [falling, partial curve].

As to `N#CC1(P(=O)(c2ccccc2)c2ccccc2)CC1`, the cell number change is -2.28%. Besides, the AC50 under setting [1] is 4.11 µM [falling, full curve, poor fit].

With `O=C1Nc2ccccc2S/C1=C/NCc1ccccc1Cl`, under setting [1], the AC50 is 0.326 µM [rising, single point].

Consider `Cc1nnc(NC(=O)C2C3C=CC(O3)C2C(=O)O)s1` (stereo not given), for which the cell number change was -3.94%. Besides, the AC50 under setting [2] was 0.92 µM [falling, single point]. Besides, under setting [1], the AC50 was 0.651 µM [falling, single point].

Regarding `Cc1ccccc1Oc1nc2c(C)cccn2c(=O)c1/C=C(\C#N)C(=O)NC1CCS(=O)(=O)C1` (stereo not given), the cell number change was -8.17%. Also, the concentration at half-maximal activity (AC50) under setting [1] is 0.0058 µM [falling, full curve, poor fit].

As for `O=c1oc2ccccc2c(NCCc2ccccc2)c1[N+](=O)[O-]`, the cell number change is 0.569%. Under setting [1], the AC50 was 6.51 µM [falling, single point].

Turning to `CC(OC(=O)/C=C/c1ccc2ccccc2n1)C(=O)NCc1ccccc1` (stereo not given), the cell number change was 43.8%. Besides, the AC50 under setting [2] is 16.4 µM [rising, single point].

For the compound `COc1ccc(/C=C/C(=O)OCC(=O)NCC2CCCO2)cc1` (stereo not given), the cell number change came out at 2.26%. For the same compound, the AC50 under setting [2] was 0.13 µM [rising, full curve, poor fit]. Under setting [1], the AC50 is 4.11 µM [rising, full curve].

On to `N=C(c1cccc([N+](=O)[O-])c1)N1CCCCCC1`, for which the cell number change turned out to be 2%. Also, under setting [1], the concentration at half-maximal activity (AC50) is 1.84 µM [falling, partial curve, poor fit].

In the case of `O=C(/C=C1\SC(=O)N(CC(=O)Nc2ccc(Cl)cc2)C1=O)Nc1ccc(F)cc1`, the cell number change came out at 5.8%.

Consider `Cc1nnc(Sc2cc(C(=O)NCCCOC(C)C)c3ccccc3n2)s1`, for which the cell number change was found to be 12.3%. Moreover, the concentration at half-maximal activity (AC50) under setting [1] is 18.4 µM [rising, partial curve].

Consider `CCOC(=O)Cn1c(C)cc(=O)c2cccc(C)c21`, for which the cell number change is -1.68%.

In the case of `Cc1cc(Cl)ccc1N=c1ssnc1Cl`, the cell number change was -17.1%. For the same compound, the half-maximal activity concentration (AC50) under setting [1] is 18.4 µM [falling, single point].

As to `Cc1noc(C)c1CSCC(=O)Nc1nc2ccc(Oc3ccccc3)cc2s1`, the AC50 runs as follows: under setting [2], 0.103 µM [rising, partial curve, poor fit]; under setting [1], 20.6 µM [falling, single point].

Take `COc1ccc(C2C(C(C)=O)=C(O)C(=O)N2c2ccc(F)cc2)cc1` (stereo not given): the cell number change is -1.93%. In addition, under setting [1], the AC50 is 0.184 µM [falling, full curve, poor fit].

Consider `CC(C)OC(=O)Cn1nnc(-c2ccccc2)n1`, for which the cell number change worked out at 4.83%. In addition, the AC50 under setting [1] was 0.184 µM [falling, full curve, poor fit].

Turning to `COc1ccc(OC)c(C2=NS(=O)(=O)N(C)C(C(=O)NCc3cccs3)=C2)c1`, the cell number change is -14.3%. Also, the AC50 under setting [1] is 10.3 µM [falling, partial curve].

In the case of `CCOc1ccc(-c2c[n+]3c(n2-c2ccccc2)CCCCC3)cc1`, the cell number change is -28.3%. For the same compound, the AC50 under setting [1] was 18.4 µM [falling, partial curve].

`O=S(=O)(c1cc(F)ccc1F)N1CCN2CCCC2C1` (stereo not given): the cell number change was determined as 14.2%. The AC50 under setting [1] was 29.1 µM [rising, single point].

For the compound `COc1ccccc1NC(=O)CN1C(=O)COc2ccc(S(=O)(=O)N3CCCCCC3)cc21`, the cell number change was -1.53%. Moreover, the AC50 under setting [1] is 29.1 µM [rising, single point].

For `COc1cc(O)c2c(c1)OC(C)(C)CC2=O`, under setting [1], the AC50 is 5.8 µM [falling, single point].

Take `O=C(O)C1C2C=CC(C2)C1C(=O)Nc1cccc(Cl)c1` (stereo not given): the cell number change amounted to 8.33%.

For the compound `Cc1cc(C)n(CC(=O)NC2CCCN(Cc3ccc(Cl)cc3)C2)n1` (stereo not given), the AC50 under setting [1] is 29.1 µM [rising, single point].

In the case of `Cc1ccsc1C(=O)N1CCN(c2ncccn2)CC1`, the cell number change was -67%. For the same compound, the AC50 under setting [2] is 29.1 µM [falling, single point]. The AC50 under setting [1] is 29.1 µM [falling, single point].
